# Assay results reported in PubChem BioAssay AID1259354 (Paczesny and Yang Labs, IUPUI and University of Michigan, 2018).
# Sequences of proteins named here, by UniProt entry; tags and fusion partners are left off. A change or cut given only in a name is not applied to a line headed by its entry.
# UniProt Q01638: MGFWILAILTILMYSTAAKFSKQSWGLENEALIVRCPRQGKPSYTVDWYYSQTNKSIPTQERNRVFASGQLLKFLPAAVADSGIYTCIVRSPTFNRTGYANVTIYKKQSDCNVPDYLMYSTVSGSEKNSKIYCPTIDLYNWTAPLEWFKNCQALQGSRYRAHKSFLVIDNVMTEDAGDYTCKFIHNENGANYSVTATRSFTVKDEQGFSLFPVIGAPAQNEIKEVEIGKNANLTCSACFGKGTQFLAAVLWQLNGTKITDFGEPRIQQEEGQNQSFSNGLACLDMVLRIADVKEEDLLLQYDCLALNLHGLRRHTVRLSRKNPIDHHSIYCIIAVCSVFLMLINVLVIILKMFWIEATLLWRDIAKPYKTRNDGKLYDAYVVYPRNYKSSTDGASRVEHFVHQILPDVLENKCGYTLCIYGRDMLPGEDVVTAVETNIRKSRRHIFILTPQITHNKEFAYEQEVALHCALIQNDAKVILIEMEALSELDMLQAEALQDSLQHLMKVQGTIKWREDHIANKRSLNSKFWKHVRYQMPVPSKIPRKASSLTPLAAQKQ
# Out of some 78,000 compounds screened, about 1,800 (2.3%) were called active. The inconclusive results got no clear call from the source; some entries with a clear call stand among them for comparison. No stated cut-off is given here; in the data, active means inhibition above about 30%; inconclusive means mostly about 10% to 28%; inactive means weaker than that.
# Target: Interleukin-1 receptor-like 1 (Homo sapiens) (UniProt Q01638)
# Assay: inhibitors of human ST2 (IL1RL1) binding to IL-33, primary screen, biochemical, AlphaLISA (AID 1259354)
# Conditions: AlphaLISA ST2-Fc/biotin-IL-33 interaction, 1 h; at 17 µM, active compounds read high
row,SMILES,inhibition
1,O=C(c1cn(Cc2ccccc2C(F)(F)F)nn1)N1C[C@@H]2C[C@H](C1)c1cccc(=O)n1C2,inconclusive: 15%
2,COc1ccc(C(=O)N2C[C@@H]3C[C@H](C2)c2c(-c4ccc(Cl)cc4)ccc(=O)n2C3)cc1,inconclusive: 17%
3,O=C(Nc1ccccc1)C(=O)N1C[C@@H](c2ccccc2)[C@@H]2[C@H]1C1CCN2CC1,inconclusive: 19%
4,CCCc1cncnc1N1CCN2CCN(C)C(=O)C2C1 (stereo not drawn),inconclusive: 21%
5,COc1ccc(-c2cc([C@H]3CN4CC[C@H]3C[C@@H]4CNC(=O)c3ccc(C(C)(C)C)cc3)n(C)n2)cc1OC,inconclusive: 18%
6,Cc1nc(-c2cccs2)cc([C@H]2CN3CC[C@H]2C[C@@H]3COC(=O)NC2CCCCC2)n1,inconclusive: 16%
7,CC1CN(c2ccc([N+](=O)[O-])cc2)CC(C)N1 (stereo not drawn),inactive
8,COc1cc(/C=C/c2nc3ccccc3c(=O)n2-c2ccccc2OC)ccc1O,inactive
9,CC(C)CCNC(=O)CN1CCCN(Cc2ccccc2)S1(=O)=O,inconclusive: 10%
10,O=c1oc2ccccc2c(O)c1C(C[N+](=O)[O-])c1c[nH]c2ccccc12 (stereo not drawn),inactive
11,Fc1ccc(CN2CCN(Cc3ccccc3)CC2)cc1F,inconclusive: 21%
12,C[C@@]1(C(=O)O)CC[C@]2(C)CC[C@]3(C)C4=CC(=O)c5cc(O)c(O)cc5[C@]4(C)CC[C@@]3(C)[C@@H]2C1,inconclusive: 25%
13,COc1cccc(CN2CCN(Cc3ccccc3)CC2)c1OC,inconclusive: 12%
14,CN(C)c1ccc(CN2CC=C(c3ccc(F)cc3)CC2)cc1,active: 40%
15,O=[N+]([O-])c1ccc(N2CCN(Cc3cccc(Cl)c3)CC2)cc1,active: 36%
16,C=C[C@H]1CN2CC[C@H]1C[C@@H]2CNC(=O)c1ccc(-c2ccccc2)cc1,inconclusive: 21%
17,CNc1ccc2oc(C[C@H]3O[C@@]4(CC[C@H]3C)O[C@H]([C@H](C)C(=O)c3ccc[nH]3)[C@H](C)C[C@H]4C)nc2c1C(=O)O,inconclusive: 10%
18,COc1ccc(Cl)cc1/C=C/[N+](=O)[O-],active: 97%
19,C#C[C@H]1CN2CC[C@H]1C[C@@H]2CNS(=O)(=O)c1cccc(C#N)c1,inconclusive: 12%
20,O=C(NC1CCCCC1)N1C[C@@H]2C[C@H](C1)c1c(-c3ccccc3F)ccc(=O)n1C2,inconclusive: 14%
21,CCCN(CCC)C1CCc2cccc(O)c2C1 (stereo not drawn),inconclusive: 17%
22,COc1ccccc1CC(C)N(C)C(=O)Cc1csc(C)n1 (stereo not drawn),inactive

row,SMILES,inhibition
1,Cc1cccc(-n2c(/C=C/c3ccc([N+](=O)[O-])cc3)nc3ccccc3c2=O)c1,inconclusive: 23%
2,Fc1ccc(N2CCN(CCc3ccccc3)CC2)cc1,inconclusive: 22%
3,CCOC(=O)C1C2c3ccccc3O[C@]1(C)N=C1SCC(=O)N12 (stereo partly drawn),inconclusive: 16%
4,Cc1cc(Cl)ccc1C(=O)C1CCCN(Cc2nc3ccccc3[nH]2)C1 (stereo not drawn),inconclusive: 20%
5,O=[N+]([O-])c1ccc(N2CCN(Cc3ccccc3F)CC2)cc1,inconclusive: 27%
6,O=C(Nc1ccccc1)N1C[C@@H]2C[C@H](C1)c1c(-c3cc4ccccc4s3)ccc(=O)n1C2,inconclusive: 20%
7,COCCC(=O)Nc1ccc2n(c1=O)C[C@H]1C[C@@H]2CN(C(=O)c2ccccn2)C1,inconclusive: 20%
8,CCCN1CCc2cccc3c2[C@H]1Cc1ccc(O)c(O)c1-3,inconclusive: 27%
9,CCOc1ccccc1CN1CCN(c2ccccc2C)CC1,inconclusive: 18%
10,Cc1nccc2c1[nH]c1ccccc12,inconclusive: 16%
11,COc1ccc(CN2CCN(c3cccc(Cl)c3)CC2)cc1OC,inactive
12,CCN(CC)C[C@H]1CN2CC[C@H]1C[C@@H]2CNS(=O)(=O)c1cccs1,inconclusive: 13%
13,COc1ccccc1NC(=O)CN1C(=O)C(C)N=C(c2ccccc2)c2ccccc21 (stereo not drawn),inactive
14,CC(=O)Nc1ccc(-c2ccc(=O)n3c2[C@@H]2C[C@@H](CN(C(=O)CCC(=O)O)C2)C3)cc1,inconclusive: 12%
15,CCN1C(=O)NC(=O)/C(=C\c2cn(CC(=O)N3CCCC3)c3ccccc23)C1=O,inactive
16,COc1ccc(NC(=O)N2C[C@@H]3C[C@H](C2)c2c(NC(=O)CSC)ccc(=O)n2C3)cc1,inconclusive: 21%
17,CC[C@H]1CN2CC[C@H]1C[C@@H]2CNC(=S)Nc1ccc(OC)cc1,inactive
18,O=[N+]([O-])c1ccccc1CN1CC=C(c2ccc(F)cc2)CC1,active: 30%
19,S=C(NCCN1CCOCC1)NC[C@H]1C[C@@H]2CCN1C[C@@H]2CN1CCC(Cc2ccccc2)CC1,inactive
20,Nc1c2c(nc3sc4c(c13)CCCC4)CCCC2,inconclusive: 16%
21,O=C(Cc1cccc(O)c1)N1C[C@@H](c2ccccc2)[C@@H]2[C@H]1C1CCN2CC1,inconclusive: 20%
22,CCC(Cn1ccnc1)NC(=O)c1cn(C)c2ccccc12 (stereo not drawn),inconclusive: 18%

# Another view of some results above.
row	SMILES	inhibition
10	Cc1nccc2c1[nH]c1ccccc12	inconclusive: 16%
11	COc1ccc(CN2CCN(c3cccc(Cl)c3)CC2)cc1OC	inactive
12	CCN(CC)C[C@H]1CN2CC[C@H]1C[C@@H]2CNS(=O)(=O)c1cccs1	inconclusive: 13%
13	COc1ccccc1NC(=O)CN1C(=O)C(C)N=C(c2ccccc2)c2ccccc21 (stereo not drawn)	inactive

# Following part.

row,SMILES,inhibition
1,CSc1ccc(-c2ccc(=O)n3c2[C@@H]2C[C@@H](CN(S(=O)(=O)c4cccs4)C2)C3)cc1,inconclusive: 11%
2,O=C(Nc1ccccc1)Nc1ccc2n(c1=O)C[C@H]1C[C@@H]2CN(C(=O)Cc2cccs2)C1,inactive
3,Cc1cccnc1CC(C)N(C)Cc1cc(F)ccc1O (stereo not drawn),inconclusive: 12%
4,CCCCc1cn(C[C@H]2CC3CCN2C[C@@H]3C(=O)NCc2ccco2)nn1 (stereo partly drawn),inconclusive: 11%
5,O=C(Nc1ccc2n(c1=O)C[C@H]1C[C@@H]2CN(C(=O)Nc2ccc(F)cc2)C1)c1ccco1,inactive
6,CCOc1ccc(Br)cc1C1C(C#N)=C(N)Oc2c1c(=O)oc1ccccc21 (stereo not drawn),inactive
7,O[C@H]1C[C@@H]2CN(Cc3cccn3-c3ccc(Cl)cn3)C[C@@H]2C[C@@H]1O,inconclusive: 10%
8,CN1CCN(c2ccc(C=O)cc2[N+](=O)[O-])CC1,inactive
9,O=C(NC1CCCCCCC1)C1CSC(c2cccnc2)=N1 (stereo not drawn),inconclusive: 13%
10,CCCCc1cn(C[C@H]2CC3CCN2C[C@@H]3C(=O)NCc2ccc3c(c2)OCO3)nn1 (stereo partly drawn),inconclusive: 14%
11,CCOc1ccc(CN2CCN(c3ccc(OC)cc3)CC2)cc1,active: 34%
12,CN(Cc1ccco1)C(=O)c1cn(Cc2ccccn2)cc(C(=O)NC2CCCCCCC2)c1=O,inactive
13,CC(=O)c1ccc(N2Cc3ccccc3C2=N)cc1,inactive
14,Clc1cc(I)cc(Cl)c1NC1=NCCN1,inconclusive: 14%
15,C=C[C@H]1CN2CC[C@H]1C[C@@H]2CNC(=O)CCCC(=O)O,inconclusive: 26%
16,Cn1nc(-c2ccc(F)cc2)cc1[C@H]1CN2CC[C@H]1C[C@@H]2CO,inconclusive: 19%
17,Cc1ccccc1N1CCN(Cc2ccc(F)cc2)CC1,inactive
18,N#Cc1ccc(C(=O)N2C[C@@H]3C[C@H](C2)c2ccc(-c4cccc(C#N)c4)c(=O)n2C3)cc1,inconclusive: 14%
19,O=c1c2ccccc2nc(/C=C/c2ccccc2)n1-c1ccc(O)cc1,inconclusive: 15%
20,O=C(NCc1ccc(F)cc1)[C@H]1CN2CCC1C[C@@H]2Cn1cc(CSc2ccccc2)nn1 (stereo partly drawn),inconclusive: 15%
21,CCN(CC)C[C@H]1CN2CC[C@H]1C[C@@H]2CNC(=O)COC,inactive
22,C[C@H](Cc1ccc2c(c1)OC(C(=O)O)(C(=O)O)O2)NC[C@H](O)c1cccc(Cl)c1,inconclusive: 16%

# Quoted from the listing.
# `CCOc1ccc(CN2CCN(c3ccc(OC)cc3)CC2)cc1` | inhibition: active: 34%
# `O=c1c2ccccc2nc(/C=C/c2ccccc2)n1-c1ccc(O)cc1` | inhibition: inconclusive: 15%

# Next records

row,SMILES,inhibition
1,CCC1(c2ccc(N)cc2)CCC(=O)NC1=O (stereo not drawn),inconclusive: 13%
2,Cc1ccccc1N1CCN(Cc2ccc(F)c(Br)c2)CC1,inconclusive: 10%
3,O=c1ccc(-c2cncnc2)c2n1C[C@H]1C[C@@H]2CN(S(=O)(=O)c2ccccc2)C1,inconclusive: 14%
4,Cc1c(Cl)c([N+](=O)[O-])nn1CC(=O)Nc1ccc(Cl)cc1C(=O)c1ccccc1,inconclusive: 14%
5,C#C[C@H]1CN2CC[C@H]1C[C@@H]2CNC(=S)NC1CCCCC1,inactive
6,COCCNC(=S)NC[C@H]1C[C@@H]2CCN1C[C@@H]2CN1CCN(c2ccccn2)CC1,inconclusive: 15%
7,COc1ccc(Br)cc1CN1CCN(c2ccc(F)cc2)CC1,inconclusive: 22%
8,Cc1cc(Br)c2[nH]cc(CCN)c2c1,inactive
9,CCN1C(=O)NC(=O)/C(=C\c2cn(CCOc3ccccc3)c3ccccc23)C1=O,inconclusive: 12%
10,Cn1nc(-c2ccc(F)cc2)cc1[C@H]1CN2CC[C@H]1C[C@@H]2CNC(=O)Nc1ccccc1,inconclusive: 15%
11,COCCNC(=O)[C@H]1CN2CC[C@H]1C[C@@H]2Cn1cc(CN(C)C)nn1,inconclusive: 11%
12,CCCS(=O)(=O)N1CCC(C(=O)N2CCC3(CC2)OCCO3)CC1,inactive
13,COc1ccc(-n2c(=O)[nH]c3ccccc3c2=O)cc1OC,inactive
14,CCN1C(=O)NC(=O)/C(=C\c2cn(CC(=O)NCC3CCCO3)c3ccccc23)C1=O (stereo not drawn),inconclusive: 19%
15,Cc1cc(Br)ccc1NC(=O)C(Cl)(Cl)Cl,inconclusive: 16%
16,C#Cc1ccc(CN(C)C(C)Cc2cc(C)ccn2)cc1 (stereo not drawn),inactive
17,O=C(Nc1ccccc1)[C@H]1CN2CC[C@H]1C[C@@H]2Cn1cc(CC2CCCCC2)nn1,inactive
18,CCN(CC)C[C@H]1CN2CC[C@H]1C[C@@H]2CNC(=O)c1ccco1,inactive
19,S=C(NCCN1CCOCC1)NC[C@H]1C[C@@H]2CCN1C[C@@H]2CN1CCN(c2ccccn2)CC1,inconclusive: 21%
20,O=C(Cn1cnc([N+](=O)[O-])n1)Nc1ccc(Cl)cc1C(=O)c1ccccc1,inconclusive: 11%
21,CN(C[C@H]1CN2CC[C@H]1C[C@@H]2CNC(=S)NCCN1CCOCC1)c1ccccc1,inconclusive: 15%
22,O=S(=O)(NC[C@H]1C[C@@H]2CCN1C[C@@H]2CN1CCN(c2ccccn2)CC1)c1ccc(Cl)cc1,inconclusive: 14%

# Looked up by structure from above:
row,SMILES,inhibition
20,O=C(Cn1cnc([N+](=O)[O-])n1)Nc1ccc(Cl)cc1C(=O)c1ccccc1,inconclusive: 11%
12,CCCS(=O)(=O)N1CCC(C(=O)N2CCC3(CC2)OCCO3)CC1,inactive
